Results are given in words; binding and its absence hold for the method and conditions named. Binding seen in cells or lysates may run through a third protein. Some entries that bind do so weakly or less than the wild type. Sequences can lack the tags named with a protein.
Assays:
[1] = target: T1, wild type erythropoietin receptor-gp130 (Eg) fusion protein (mouse; human) (UniProt P14753+P40189); experiment: co-immunoprecipitation with Hck antibody, anti-His-label blot, Cos-7 cells
T1 sequence (looked up): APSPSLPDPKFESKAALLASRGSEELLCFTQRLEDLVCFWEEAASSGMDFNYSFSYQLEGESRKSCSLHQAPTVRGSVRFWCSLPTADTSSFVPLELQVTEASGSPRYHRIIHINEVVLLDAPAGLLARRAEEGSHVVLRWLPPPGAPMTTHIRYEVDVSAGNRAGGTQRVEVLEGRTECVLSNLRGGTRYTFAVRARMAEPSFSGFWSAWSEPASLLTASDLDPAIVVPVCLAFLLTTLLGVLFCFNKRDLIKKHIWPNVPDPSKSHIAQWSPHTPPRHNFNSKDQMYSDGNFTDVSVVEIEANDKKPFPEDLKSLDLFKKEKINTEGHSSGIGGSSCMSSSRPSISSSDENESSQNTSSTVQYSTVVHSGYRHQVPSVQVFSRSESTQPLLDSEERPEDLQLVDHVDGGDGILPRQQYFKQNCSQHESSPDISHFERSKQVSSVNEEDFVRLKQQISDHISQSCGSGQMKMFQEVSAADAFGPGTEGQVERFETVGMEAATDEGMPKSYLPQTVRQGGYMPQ

By UniProt entry, the sequences of proteins in these tests, tags left out. Where a name states a change or a piece, a line headed by the entry shows the natural chain unless it says otherwise. Residues count along the entry.
UniProt P40189: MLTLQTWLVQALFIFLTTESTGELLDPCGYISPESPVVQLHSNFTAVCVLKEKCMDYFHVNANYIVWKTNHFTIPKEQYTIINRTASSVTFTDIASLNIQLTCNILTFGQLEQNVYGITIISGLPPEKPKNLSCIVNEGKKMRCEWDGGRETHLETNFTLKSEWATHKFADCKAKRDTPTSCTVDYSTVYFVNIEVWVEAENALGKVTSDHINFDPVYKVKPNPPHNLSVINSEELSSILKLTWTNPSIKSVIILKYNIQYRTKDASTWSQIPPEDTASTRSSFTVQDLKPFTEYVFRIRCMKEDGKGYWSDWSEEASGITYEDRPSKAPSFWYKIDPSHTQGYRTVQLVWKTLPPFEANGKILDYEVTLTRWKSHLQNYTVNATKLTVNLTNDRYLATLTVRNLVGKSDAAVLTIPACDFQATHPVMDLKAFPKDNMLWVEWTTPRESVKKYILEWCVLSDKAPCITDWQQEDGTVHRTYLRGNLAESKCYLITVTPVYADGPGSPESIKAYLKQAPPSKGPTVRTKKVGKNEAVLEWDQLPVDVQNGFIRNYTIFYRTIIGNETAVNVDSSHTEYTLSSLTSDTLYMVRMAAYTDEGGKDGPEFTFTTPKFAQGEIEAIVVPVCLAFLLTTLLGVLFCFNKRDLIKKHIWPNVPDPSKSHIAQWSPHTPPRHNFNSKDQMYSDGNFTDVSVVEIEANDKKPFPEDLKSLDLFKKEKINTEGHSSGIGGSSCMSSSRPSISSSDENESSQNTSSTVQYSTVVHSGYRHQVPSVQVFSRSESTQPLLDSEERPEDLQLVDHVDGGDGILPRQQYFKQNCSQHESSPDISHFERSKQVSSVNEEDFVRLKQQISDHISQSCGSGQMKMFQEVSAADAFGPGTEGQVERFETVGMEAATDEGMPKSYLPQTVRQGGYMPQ
UniProt P08631, residues 2-526: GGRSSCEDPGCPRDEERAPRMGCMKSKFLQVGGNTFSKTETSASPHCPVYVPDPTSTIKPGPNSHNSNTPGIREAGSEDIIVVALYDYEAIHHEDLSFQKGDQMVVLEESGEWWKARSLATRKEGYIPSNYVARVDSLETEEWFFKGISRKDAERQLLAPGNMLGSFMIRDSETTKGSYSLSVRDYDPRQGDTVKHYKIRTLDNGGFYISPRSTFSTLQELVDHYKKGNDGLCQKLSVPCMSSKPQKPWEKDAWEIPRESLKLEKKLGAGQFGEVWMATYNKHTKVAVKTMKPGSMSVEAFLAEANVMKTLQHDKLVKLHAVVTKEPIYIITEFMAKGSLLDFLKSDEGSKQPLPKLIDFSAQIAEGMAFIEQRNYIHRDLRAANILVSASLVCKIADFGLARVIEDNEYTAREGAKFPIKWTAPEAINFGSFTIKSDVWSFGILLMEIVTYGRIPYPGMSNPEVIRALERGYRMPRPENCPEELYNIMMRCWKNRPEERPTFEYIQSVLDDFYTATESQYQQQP

[2] = target: T1, wild type erythropoietin receptor-gp130 (Eg) fusion protein (mouse; human); experiment: co-immunoprecipitation with anti-Hck, anti-His blot, Cos-7 lysates (FIG. 5B)

Hck tyrosine kinase (wild type Hck, expressed from pcDNA3-Hck or pDpuro-Hck) (from UniProt P08631 2-526) (enzyme)
binding [1]: binds | binding [2]: binds
